These are yes or no findings as the source states them, for the method shown. In cells and extracts the contact can be indirect. These calls come from enrichment with a bait or labelling near it, and not all partners need be listed.
Target: serine/threonine‐specific protein phosphatase (PP1A) (human (in Huh7 cells; endogenous or transfected not stated)) (UniProt P62136)
Test: affinity purification with mass spectrometry; IP from Huh7 cell lysate (IP/Western lysis buffer), antibody overnight at 4°C, protein A/G magnetic beads 6 h at 4°C, LC-MS/MS

Sequences of proteins named here, by UniProt entry; tags and fusion partners are left off.
UniProt P62136: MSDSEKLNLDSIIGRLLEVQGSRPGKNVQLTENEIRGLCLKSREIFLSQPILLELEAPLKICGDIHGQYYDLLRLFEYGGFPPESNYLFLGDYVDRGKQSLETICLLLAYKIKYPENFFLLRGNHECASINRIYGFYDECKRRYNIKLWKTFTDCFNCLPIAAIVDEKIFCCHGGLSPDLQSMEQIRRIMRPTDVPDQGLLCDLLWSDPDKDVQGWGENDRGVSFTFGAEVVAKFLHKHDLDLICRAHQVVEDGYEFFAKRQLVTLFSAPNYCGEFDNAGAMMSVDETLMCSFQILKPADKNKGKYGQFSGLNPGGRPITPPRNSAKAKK
UniProt Q14145: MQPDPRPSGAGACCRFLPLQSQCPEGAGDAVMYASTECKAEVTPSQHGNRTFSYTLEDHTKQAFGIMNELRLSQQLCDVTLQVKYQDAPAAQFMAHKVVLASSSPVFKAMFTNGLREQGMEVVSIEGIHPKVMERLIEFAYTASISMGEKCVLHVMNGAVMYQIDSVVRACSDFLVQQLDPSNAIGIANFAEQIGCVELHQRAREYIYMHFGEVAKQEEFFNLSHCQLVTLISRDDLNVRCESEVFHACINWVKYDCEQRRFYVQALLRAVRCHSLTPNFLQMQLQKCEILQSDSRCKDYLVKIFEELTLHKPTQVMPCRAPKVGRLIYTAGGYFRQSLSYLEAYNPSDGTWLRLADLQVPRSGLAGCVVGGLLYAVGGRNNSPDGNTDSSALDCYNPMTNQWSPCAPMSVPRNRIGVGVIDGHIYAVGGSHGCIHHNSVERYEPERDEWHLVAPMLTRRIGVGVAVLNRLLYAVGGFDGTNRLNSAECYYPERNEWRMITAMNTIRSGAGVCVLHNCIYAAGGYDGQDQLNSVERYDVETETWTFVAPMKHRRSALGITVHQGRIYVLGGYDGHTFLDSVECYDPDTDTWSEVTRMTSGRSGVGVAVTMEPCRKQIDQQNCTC

binding: binds
Substance: Kelch‐like ECH‐associated protein (Keap1) (from UniProt Q14145 1-624)

Source: paper PMC12279197
